Data taken from PubChem BioAssay AID330 (DTP/NCI, 2004).
The list shows only some results of the screen, not a fair sample: it is rich in T/C values a quarter to a half above the control, in often repeated tests (any T/C) and in doses without a T/C. Further doses and runs are listed elsewhere. T/C: endpoint of the treated group in % of that of the vehicle group. Some entries give survivors of the animals treated and no T/C: the source files T/C as zero there, which appears to mark a toxic dose or a test without result, not a measured value. Some survivor counts are full or nearly so, which does not show that the dose was tolerated: survival well below the control is almost never listed, so the zero probably covers shortened survival too. Survivors were counted at the toxicity check, usually on the fifth day, unless a day is given; later deaths do not show. Schedules are NCI's codes, taken here to give the interval after Q, in days (D) or hours (H), and the number of doses after X. For survival time, this PubChem deposit counts one and a half times the control or more as active, and values a quarter to a half above the control carry no call in these data; other NCI protocols may use other cut-offs. Some T/C values are followed by the survivors on the day toxicity was checked, most often the fifth; without a count, all were alive then. Some doses were run more than once; the results are listed from low to high.

System: P388 leukemia ip, CD2F1 mice, survival T/C
Assay: NCI In Vivo Anticancer Drug Screen. Data for tumor model P388 Leukemia (intraperitoneal) in CD2F1 (CDF1) mice
Details: T/C endpoint: median survival time, higher T/C = longer survival
[1] = dose: 50.0 mg/kg/injection, schedule: Q01DX005 (ip), vehicle: saline with Tween-80
[2] = dose: 100.0 mg/kg/injection, schedule: Q01DX005 (ip), vehicle: saline with Tween-80
[3] = dose: 200.0 mg/kg/injection, schedule: Q01DX005 (ip), vehicle: saline with Tween-80
[4] = dose: 240.0 mg/kg/injection, schedule: Q01DX005 (ip), vehicle: saline
[5] = dose: 25.0 mg/kg/injection, schedule: Q01DX009 (ip), vehicle: saline with Tween-80
[6] = dose: 50.0 mg/kg/injection, schedule: Q01DX009 (ip), vehicle: saline with Tween-80

O=c1[nH]cnc2cc3[nH]ncc3cc12 was tested, and the survivor count (dose: 6.0 mg/kg/injection, schedule: Q01DX005 (ip), vehicle: saline with Tween-80) was 5 of 6, the survivor count (dose: 12.5 mg/kg/injection, schedule: Q01DX005 (ip), vehicle: saline with Tween-80) was 6 of 6 and the survivor count (dose: 25.0 mg/kg/injection, schedule: Q01DX005 (ip), vehicle: saline with Tween-80) was 6 of 6. The survivor count [1] was 6 of 6.
With CC(=O)CCN1C(C#N)CCCC1C#N (stereo not given) the survivor count [1] was 0 of 5, the survivor count [2] was 0 of 5 and the survivor count [3] was 0 of 5.
With CCCCNC(c1ccc(N(CC)CC)cc1)C(Cl)(Cl)Cl (stereo not given) the T/C (dose: 200.0 mg/kg/injection, schedule: Q01DX005 (ip), vehicle: saline) was 138 % of control, the survivor count (dose: 200.0 mg/kg/injection, schedule: Q01DX005 (ip), vehicle: water) was 2 of 6 and the survivor count (dose: 400.0 mg/kg/injection, schedule: Q01DX005 (ip), vehicle: water) was 0 of 6.
With Cc1cc(N=Nc2ccc(NC(=O)c3ccc([N+](=O)[O-])cc3)cc2C)ccc1N=Nc1ccc2cc(S(=O)(=O)O)cc(S(=O)(=O)O)c2c1 the T/C [1] was 109, 113, 117 [5 of 6 alive], 120 % of control, the survivor count [2] was 3 of 6 and the survivor count [3] was 2 of 6.
For Fc1cccc2c(SCCCCCSc3c4ccccc4nc4c(F)cccc34)c3ccccc3nc12, the survivor count (dose: 240.0 mg/kg/injection, schedule: Q01DX005 (ip), vehicle: Klucel (hydroxypropylcellulose) (HPC)) was 6 of 6.
For CN1CC(O)C2=CC(=O)C(=O)C=C21 (stereo not given), the survivor count [4] was 0 of 6.
In the case of CCn1c(=S)[nH]c2sc3c(c2c1=O)CCCC3, the survivor count (dose: 240.0 mg/kg/injection, schedule: Q01DX005 (ip), vehicle: saline with Tween-80) was 3 of 6.
COc1cccc(/C=N/NC(=O)C2CCN(C(=S)NC3CC4C=CC3C4)CC2)c1O (stereo not given) was tested, and the survivor count [5] was 5 of 6.
In the case of CNC(=O)Nc1ccncc1, the survivor count (dose: 100.0 mg/kg/injection, schedule: Q01DX009 (ip), vehicle: saline) was 0 of 5.
In the case of CCS/C(C#N)=C/c1ccccc1, the survivor count (dose: 200.0 mg/kg/injection, schedule: Q01DX009 (ip), vehicle: saline with Tween-80) was 3 of 6.
With O=C1N2CCNc3ccccc3C(c3ccccc3)N1CC2 (stereo not given) the survivor count (dose: 50.0 mg/kg/injection, schedule: Q01DX005 (ip), vehicle: Klucel (hydroxypropylcellulose) (HPC)) was 0 of 6, the survivor count (dose: 100.0 mg/kg/injection, schedule: Q01DX005 (ip), vehicle: Klucel (hydroxypropylcellulose) (HPC)) was 0 of 6 and the survivor count (dose: 200.0 mg/kg/injection, schedule: Q01DX005 (ip), vehicle: Klucel (hydroxypropylcellulose) (HPC)) was 0 of 6.
In the case of O=NN(CCBr)C(=O)Nc1ccccc1, the T/C (dose: 3.0 mg/kg/injection, schedule: Q01DX009 (ip), vehicle: saline with Tween-80) was 145 % of control, the T/C (dose: 12.5 mg/kg/injection, schedule: Q01DX009 (ip), vehicle: saline with Tween-80) was 145 % of control and the T/C (dose: 16.5 mg/kg/injection, schedule: Q01DX009 (ip), vehicle: saline with Tween-80) was 133 % of control. For the same molecule, the T/C [5] was 141 % of control, the survivor count [5] was 6 of 6 and the T/C [6] was 140 % of control. The survivor count [6] was 6 of 6, the survivor count (dose: 100.0 mg/kg/injection, schedule: Q01DX009 (ip), vehicle: saline with Tween-80) was 5 of 6 and the T/C (dose: 100.0 mg/kg/injection, schedule: Q04DX003 (ip), vehicle: saline with Tween-80) was 131 % of control [5 of 6 alive]. The survivor count (dose: 200.0 mg/kg/injection, schedule: Q04DX003 (ip), vehicle: saline with Tween-80) was 6 of 6 and the survivor count (dose: 400.0 mg/kg/injection, schedule: Q04DX003 (ip), vehicle: saline with Tween-80) was 3 of 6.
For O=C(O)Cn1c(=S)sc2ccccc21, the survivor count (dose: 50.0 mg/kg/injection, schedule: Q01DX009 (ip), vehicle: Klucel (hydroxypropylcellulose) (HPC)) was 0 of 6, the survivor count (dose: 100.0 mg/kg/injection, schedule: Q01DX009 (ip), vehicle: Klucel (hydroxypropylcellulose) (HPC)) was 0 of 6 and the survivor count (dose: 200.0 mg/kg/injection, schedule: Q01DX009 (ip), vehicle: Klucel (hydroxypropylcellulose) (HPC)) was 0 of 6. The survivor count (dose: 400.0 mg/kg/injection, schedule: Q01DX009 (ip), vehicle: Klucel (hydroxypropylcellulose) (HPC)) was 0 of 6.
For COC(=O)CCCN1CC2C=C(C#N)C1C(C(=O)OC)C2 (stereo not given), the survivor count [4] was 5 of 6.
With CC[N+](C)(C)c1ccccc1 the survivor count (dose: 50.0 mg/kg/injection, schedule: Q04DX002 (ip), vehicle: saline) was 3 of 6 and the survivor count (dose: 100.0 mg/kg/injection, schedule: Q04DX002 (ip), vehicle: saline) was 0 of 6.
